At least one compound was matched to its structure with a doubt left.
Assay: Gastric emptying effect on normal rat, semi-solid test meal
Type: in vivo, Sprague-Dawley rats
Conditions: 10 μg/kg oral
Procedure: Gastric emptying activity of the compounds of the present invention was examined in the following experiment.
Sprague-Dawley rats, each weighing 200˜250 g, were acclimated for one week at a temperature of 22˜24° C. and a humidity of 60-80% while a standard diet and water were provided, and then were divided into groups according to weight. Thereafter, they were starved for 24 hrs before an experiment while water was provided. From 3 hrs before the experiment, no more water was provided. […] For control 1, only 1 mL of a 3% hydroxypropylmethyl cellulose solution was used while sisapride was orally administered at a dose of 1 mg/kg in 1 mL of a 3% hydroxypropylmethyl cellulose to control 2.
After 45 min, a semi-solid test meal prepared by mashing feeds in water, was orally administered in an amount of 2 mL to each rat. After 35 min, the SD rats were killed, and the stomach containing the semi-solid test meal was excised, and weighed. Subsequently, the stomach was washed with distilled water to remove the gut content, dried, and weighed again, in order to calculate the weight of the semi-solid test meal left in the gut.
Gastric Emptying(%)=[1−(weight of semi-solid test meal left in gut/weight of semi-solid test meal at 0-time)]×100 [Equation 3] […]

Compound: COc1cc2c(cc1Oc1cc3c(cc1OC)CC[n+]1cc4c(OC)c(OC)ccc4cc1-3)C[C@@H]1NCCc3cc(OC)c(OC)c-2c31 [Compound of Example 2, (S)-3,9,10-Trimethoxy-2-(1,2,10-trimethoxy-5,6,6a,7-tetrahydro-4H-dibenzo[de,g]quinolin-9-yloxy)-5,6-dihydro-isoquino[3,2-a]isoquinolinylium]
- increase of gastric emptying compared to control 1 (no drug): roughly two-fold
